Source: the supplement of paper PMC6411743
± gives the standard deviation of the averaged measurements. This is a selection; strong and weak results do not stand in their true shares.

Protein sequences, listed by entry. Tags and fused reporters are not part of them. Lines headed by an entry give the natural chain unless they say otherwise; changes in a name come on top.
UniProt O95857: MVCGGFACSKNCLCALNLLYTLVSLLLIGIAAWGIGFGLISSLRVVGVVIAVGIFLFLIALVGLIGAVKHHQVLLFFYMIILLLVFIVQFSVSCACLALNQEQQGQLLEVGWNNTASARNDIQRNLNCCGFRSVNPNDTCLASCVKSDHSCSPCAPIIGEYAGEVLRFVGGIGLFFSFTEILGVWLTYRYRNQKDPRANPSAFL
UniProt P04183: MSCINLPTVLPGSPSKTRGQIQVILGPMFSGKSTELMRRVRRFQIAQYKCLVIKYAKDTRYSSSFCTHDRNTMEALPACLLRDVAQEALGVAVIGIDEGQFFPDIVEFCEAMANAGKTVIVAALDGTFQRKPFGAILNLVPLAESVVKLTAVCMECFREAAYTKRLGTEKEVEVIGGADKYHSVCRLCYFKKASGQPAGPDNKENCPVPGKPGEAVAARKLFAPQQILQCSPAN
UniProt P00374: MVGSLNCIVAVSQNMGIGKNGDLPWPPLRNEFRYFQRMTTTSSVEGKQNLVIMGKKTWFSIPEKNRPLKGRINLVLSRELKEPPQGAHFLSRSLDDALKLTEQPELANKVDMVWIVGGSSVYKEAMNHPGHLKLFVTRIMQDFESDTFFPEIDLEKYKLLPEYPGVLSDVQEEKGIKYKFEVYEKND
UniProt P0C2W1: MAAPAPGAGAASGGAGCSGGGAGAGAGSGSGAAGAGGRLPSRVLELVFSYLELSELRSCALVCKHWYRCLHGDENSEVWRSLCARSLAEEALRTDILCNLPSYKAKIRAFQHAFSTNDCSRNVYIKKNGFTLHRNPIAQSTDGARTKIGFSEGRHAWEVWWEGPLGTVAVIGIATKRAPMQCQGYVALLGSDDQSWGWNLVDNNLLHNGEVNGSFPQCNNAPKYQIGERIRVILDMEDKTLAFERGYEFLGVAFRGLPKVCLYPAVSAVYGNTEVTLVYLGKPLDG
UniProt P08670, whole entry: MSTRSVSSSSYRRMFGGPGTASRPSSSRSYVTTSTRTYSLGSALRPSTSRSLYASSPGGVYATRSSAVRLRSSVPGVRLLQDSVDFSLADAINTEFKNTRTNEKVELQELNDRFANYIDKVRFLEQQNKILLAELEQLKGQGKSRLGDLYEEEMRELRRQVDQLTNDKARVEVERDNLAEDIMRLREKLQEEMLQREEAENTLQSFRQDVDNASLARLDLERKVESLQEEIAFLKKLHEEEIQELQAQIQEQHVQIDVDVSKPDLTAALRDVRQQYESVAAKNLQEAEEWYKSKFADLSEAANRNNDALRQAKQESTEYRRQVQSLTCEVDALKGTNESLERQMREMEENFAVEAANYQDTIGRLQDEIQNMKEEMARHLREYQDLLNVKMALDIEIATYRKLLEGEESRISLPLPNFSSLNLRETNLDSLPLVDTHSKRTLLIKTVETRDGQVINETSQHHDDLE
UniProt O96005: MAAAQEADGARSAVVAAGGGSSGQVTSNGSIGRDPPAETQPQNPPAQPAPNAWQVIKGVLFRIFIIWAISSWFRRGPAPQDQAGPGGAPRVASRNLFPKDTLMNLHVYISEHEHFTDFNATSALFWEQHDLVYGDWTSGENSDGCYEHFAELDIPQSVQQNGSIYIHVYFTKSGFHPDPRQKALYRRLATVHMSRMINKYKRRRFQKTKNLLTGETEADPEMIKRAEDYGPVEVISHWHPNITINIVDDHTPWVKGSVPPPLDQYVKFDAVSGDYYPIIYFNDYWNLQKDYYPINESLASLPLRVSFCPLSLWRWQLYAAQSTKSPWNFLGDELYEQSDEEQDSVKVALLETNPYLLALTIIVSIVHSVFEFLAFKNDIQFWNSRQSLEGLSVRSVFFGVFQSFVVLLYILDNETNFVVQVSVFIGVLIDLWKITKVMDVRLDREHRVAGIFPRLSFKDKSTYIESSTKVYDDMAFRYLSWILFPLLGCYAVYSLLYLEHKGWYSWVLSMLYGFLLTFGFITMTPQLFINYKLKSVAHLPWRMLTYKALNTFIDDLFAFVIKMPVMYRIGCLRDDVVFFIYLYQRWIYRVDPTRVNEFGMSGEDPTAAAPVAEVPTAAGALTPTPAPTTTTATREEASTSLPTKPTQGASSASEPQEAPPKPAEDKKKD
UniProt P05771, whole entry, looked up: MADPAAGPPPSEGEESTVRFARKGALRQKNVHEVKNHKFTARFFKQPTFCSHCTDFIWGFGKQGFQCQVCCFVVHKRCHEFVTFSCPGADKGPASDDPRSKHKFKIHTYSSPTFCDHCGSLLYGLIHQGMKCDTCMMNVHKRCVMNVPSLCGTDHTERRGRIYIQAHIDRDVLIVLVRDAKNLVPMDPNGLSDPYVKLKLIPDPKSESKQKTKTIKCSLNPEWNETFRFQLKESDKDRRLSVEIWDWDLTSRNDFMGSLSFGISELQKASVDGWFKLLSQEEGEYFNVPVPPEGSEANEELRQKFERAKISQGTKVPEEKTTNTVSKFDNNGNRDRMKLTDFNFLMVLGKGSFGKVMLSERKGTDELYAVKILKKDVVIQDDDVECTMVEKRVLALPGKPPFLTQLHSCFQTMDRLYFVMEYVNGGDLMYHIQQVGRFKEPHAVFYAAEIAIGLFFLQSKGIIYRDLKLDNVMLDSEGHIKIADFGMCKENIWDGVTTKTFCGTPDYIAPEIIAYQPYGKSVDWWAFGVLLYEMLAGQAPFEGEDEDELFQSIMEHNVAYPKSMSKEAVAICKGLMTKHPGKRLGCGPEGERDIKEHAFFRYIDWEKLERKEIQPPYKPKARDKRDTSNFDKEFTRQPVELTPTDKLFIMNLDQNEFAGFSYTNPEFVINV
UniProt P04234, whole entry: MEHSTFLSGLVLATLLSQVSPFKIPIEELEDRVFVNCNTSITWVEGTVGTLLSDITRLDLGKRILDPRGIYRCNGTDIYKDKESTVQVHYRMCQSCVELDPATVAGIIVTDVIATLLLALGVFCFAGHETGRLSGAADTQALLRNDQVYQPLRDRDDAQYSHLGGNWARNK
UniProt P10586, whole entry: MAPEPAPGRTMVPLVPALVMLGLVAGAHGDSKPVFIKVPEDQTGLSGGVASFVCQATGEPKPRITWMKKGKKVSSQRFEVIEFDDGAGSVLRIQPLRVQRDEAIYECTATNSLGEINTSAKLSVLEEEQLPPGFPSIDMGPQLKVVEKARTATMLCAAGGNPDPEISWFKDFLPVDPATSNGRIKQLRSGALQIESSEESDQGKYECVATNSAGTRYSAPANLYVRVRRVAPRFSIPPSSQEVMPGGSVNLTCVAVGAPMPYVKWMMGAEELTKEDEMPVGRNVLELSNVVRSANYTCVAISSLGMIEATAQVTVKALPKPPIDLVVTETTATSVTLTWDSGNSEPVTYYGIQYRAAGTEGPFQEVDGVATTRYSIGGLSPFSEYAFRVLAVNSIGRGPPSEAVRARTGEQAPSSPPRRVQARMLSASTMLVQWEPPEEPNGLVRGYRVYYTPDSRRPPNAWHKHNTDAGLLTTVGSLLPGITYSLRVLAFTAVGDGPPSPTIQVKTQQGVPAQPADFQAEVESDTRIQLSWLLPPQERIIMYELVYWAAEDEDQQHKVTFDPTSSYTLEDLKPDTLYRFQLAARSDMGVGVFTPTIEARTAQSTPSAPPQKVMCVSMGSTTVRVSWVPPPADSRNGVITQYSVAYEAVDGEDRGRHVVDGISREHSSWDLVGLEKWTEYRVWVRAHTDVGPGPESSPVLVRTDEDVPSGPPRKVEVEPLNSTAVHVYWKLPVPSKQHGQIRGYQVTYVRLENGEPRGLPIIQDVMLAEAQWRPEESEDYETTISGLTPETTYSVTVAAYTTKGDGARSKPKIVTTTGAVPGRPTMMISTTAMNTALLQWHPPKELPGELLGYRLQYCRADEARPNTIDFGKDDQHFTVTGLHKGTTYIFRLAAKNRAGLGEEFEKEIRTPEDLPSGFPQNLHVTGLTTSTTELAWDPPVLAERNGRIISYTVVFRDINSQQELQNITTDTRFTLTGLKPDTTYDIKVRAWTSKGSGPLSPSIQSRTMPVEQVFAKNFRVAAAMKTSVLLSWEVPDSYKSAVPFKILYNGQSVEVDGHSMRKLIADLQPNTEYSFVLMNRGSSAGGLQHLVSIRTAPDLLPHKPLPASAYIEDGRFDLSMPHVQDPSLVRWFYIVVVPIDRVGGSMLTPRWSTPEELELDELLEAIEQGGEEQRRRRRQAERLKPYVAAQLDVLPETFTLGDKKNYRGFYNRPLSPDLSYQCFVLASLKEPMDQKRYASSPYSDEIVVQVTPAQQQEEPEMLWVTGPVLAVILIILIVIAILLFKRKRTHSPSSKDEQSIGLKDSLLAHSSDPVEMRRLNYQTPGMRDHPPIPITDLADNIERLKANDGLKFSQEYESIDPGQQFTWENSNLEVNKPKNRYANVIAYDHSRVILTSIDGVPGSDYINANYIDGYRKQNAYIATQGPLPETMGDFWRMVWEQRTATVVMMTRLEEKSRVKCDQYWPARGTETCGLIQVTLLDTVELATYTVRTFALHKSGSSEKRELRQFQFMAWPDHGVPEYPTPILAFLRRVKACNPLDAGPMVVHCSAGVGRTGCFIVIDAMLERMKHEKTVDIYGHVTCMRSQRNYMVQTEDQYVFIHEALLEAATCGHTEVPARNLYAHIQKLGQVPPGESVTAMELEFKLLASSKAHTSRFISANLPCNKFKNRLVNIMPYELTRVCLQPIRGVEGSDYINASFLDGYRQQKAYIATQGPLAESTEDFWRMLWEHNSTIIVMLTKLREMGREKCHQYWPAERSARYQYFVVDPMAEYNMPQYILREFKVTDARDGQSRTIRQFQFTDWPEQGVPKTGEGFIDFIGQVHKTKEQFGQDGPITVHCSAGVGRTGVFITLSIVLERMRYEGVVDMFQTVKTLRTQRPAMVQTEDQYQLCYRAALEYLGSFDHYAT
UniProt P10809, whole entry: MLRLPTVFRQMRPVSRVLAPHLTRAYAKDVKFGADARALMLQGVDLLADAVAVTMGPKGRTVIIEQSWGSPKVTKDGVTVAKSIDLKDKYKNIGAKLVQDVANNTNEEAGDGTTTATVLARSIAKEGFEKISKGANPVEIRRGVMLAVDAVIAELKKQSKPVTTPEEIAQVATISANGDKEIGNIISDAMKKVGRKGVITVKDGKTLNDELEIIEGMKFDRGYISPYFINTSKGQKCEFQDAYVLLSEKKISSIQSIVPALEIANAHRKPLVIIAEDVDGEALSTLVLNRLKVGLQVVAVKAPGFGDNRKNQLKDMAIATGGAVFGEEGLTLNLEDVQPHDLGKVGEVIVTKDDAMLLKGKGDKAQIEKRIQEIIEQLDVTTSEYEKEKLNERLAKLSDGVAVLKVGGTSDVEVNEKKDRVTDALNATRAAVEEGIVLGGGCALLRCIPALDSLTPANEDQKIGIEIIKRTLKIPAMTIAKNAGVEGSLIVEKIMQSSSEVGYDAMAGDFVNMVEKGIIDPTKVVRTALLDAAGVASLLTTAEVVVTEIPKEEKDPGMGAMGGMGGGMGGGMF
UniProt P11169: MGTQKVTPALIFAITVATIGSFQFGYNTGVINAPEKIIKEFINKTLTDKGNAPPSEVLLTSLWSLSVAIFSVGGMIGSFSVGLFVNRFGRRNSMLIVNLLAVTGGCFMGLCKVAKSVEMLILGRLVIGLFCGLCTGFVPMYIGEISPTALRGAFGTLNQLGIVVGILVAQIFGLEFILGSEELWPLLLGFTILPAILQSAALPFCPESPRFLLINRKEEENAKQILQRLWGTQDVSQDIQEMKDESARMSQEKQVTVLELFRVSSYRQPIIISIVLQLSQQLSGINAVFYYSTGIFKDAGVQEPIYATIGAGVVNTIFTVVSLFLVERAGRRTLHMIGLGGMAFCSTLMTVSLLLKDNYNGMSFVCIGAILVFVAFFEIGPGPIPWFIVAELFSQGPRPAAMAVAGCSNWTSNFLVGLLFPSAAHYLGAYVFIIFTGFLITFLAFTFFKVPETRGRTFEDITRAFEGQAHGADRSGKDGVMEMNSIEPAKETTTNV
UniProt P09669, whole entry: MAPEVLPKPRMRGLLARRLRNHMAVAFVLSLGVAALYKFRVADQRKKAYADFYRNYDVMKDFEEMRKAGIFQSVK
UniProt O95989: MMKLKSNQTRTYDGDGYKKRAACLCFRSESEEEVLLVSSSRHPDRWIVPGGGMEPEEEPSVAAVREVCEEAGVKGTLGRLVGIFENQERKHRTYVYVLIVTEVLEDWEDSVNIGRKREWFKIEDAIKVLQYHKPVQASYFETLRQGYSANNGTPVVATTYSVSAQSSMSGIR
UniProt P13489: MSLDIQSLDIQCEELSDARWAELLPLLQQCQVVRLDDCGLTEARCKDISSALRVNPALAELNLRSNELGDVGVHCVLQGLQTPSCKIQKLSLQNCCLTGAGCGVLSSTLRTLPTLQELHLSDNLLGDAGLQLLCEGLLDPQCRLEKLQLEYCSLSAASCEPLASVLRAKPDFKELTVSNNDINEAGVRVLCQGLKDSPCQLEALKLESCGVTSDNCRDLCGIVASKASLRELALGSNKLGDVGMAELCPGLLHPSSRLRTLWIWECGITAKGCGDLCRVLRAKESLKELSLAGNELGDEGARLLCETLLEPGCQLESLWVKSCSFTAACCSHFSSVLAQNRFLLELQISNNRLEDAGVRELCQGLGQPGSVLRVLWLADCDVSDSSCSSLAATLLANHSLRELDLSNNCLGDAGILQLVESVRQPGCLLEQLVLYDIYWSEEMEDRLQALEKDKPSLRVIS

Compound: Nc1ncnc2c1ncn2[C@@H]1O[C@H](COP(=O)(O)OP(=O)(O)OP(=O)(O)O)[C@@H](O)[C@H]1O [adenosine triphosphate]
Assay: NP40-soluble protein abundance relative to vehicle (solubility fold change) (ratio); higher = more soluble protein in presence of ATP
In short: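 Each value is a fold change relative to the detergent-processed vehicle, calculated per replicate from vsn-normalised intensities. Jurkat crude lysate received eight concentrations (0.1 to 10 mM) for 10 min at room temperature and 3 min at 37 °C, then was solubilised in 0.8% NP40 with benzonase (60 min, 4 °C). The ultracentrifuged supernatant was TMT-labelled and run by LC-MS/MS in three independent experiments.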

Target	NP40-soluble protein abundance (concentration: 1mM)	NP40-soluble protein abundance (concentration: 2mM)	NP40-soluble protein abundance (concentration: 4mM)	NP40-soluble protein abundance (concentration: 6mM)	NP40-soluble protein abundance (concentration: 8mM)	NP40-soluble protein abundance (concentration: 10mM)
TSPAN13 (UniProt O95857)	0.878 ± 0.11	0.886 ± 0.075	0.932 ± 0.085	0.91 ± 0.059	0.868 ± 0.057	0.911 ± 0.01
UniProt P00338-3|P00338-2	1.05 ± 0.3	0.89 ± 0.14	1.03 ± 0.15	0.742 ± 0.11	0.972 ± 0.067	0.842 ± 0.15
TK1 (UniProt P04183)	1.03 ± 0.065	1.017 ± 0.0086	1.03 ± 0.021	1.03 ± 0.016	1 ± 0.035	1.02 ± 0.03
DHFR (UniProt P00374)	1.04 ± 0.079	0.999 ± 0.1	0.981 ± 0.081	0.979 ± 0.053	0.986 ± 0.041	0.993 ± 0.055
FBXO45 (UniProt P0C2W1)	0.909 ± 0.12	0.892 ± 0.14	0.965 ± 0.11	0.847 ± 0.081	0.915 ± 0.072	0.887 ± 0.1
VIM (UniProt P08670)	0.977 ± 0.027	0.97 ± 0.014	0.952 ± 0.037	0.999 ± 0.07	0.957 ± 0.033	0.952 ± 0.026
CLPTM1 (UniProt O96005)	0.963 ± 0.047	0.976 ± 0.056	0.999 ± 0.052	0.944 ± 0.09	0.944 ± 0.03	0.973 ± 0.049
UniProt P05771-2|P05771	0.963 ± 0.038	0.966 ± 0.025	0.93 ± 0.029	0.982 ± 0.072	0.929 ± 0.049	0.957 ± 0.027
UniProt P04234	0.884 ± 0.08	0.97 ± 0.033	0.981 ± 0.048	0.934 ± 0.021	0.963 ± 0.049	0.933 ± 0.051
CTSB (UniProt P07858)	0.969 ± 0.098	0.9589 ± 0.0095	0.948 ± 0.025	0.976 ± 0.034	0.944 ± 0.058	0.931 ± 0.024
UniProt P10586 and related entries	0.975 ± 0.02	1.02 ± 0.041	1.01 ± 0.066	1.01 ± 0.029	0.948 ± 0.041	0.988 ± 0.039
TFRC (UniProt P02786)	0.94 ± 0.025	0.949 ± 0.024	0.907 ± 0.018	0.917 ± 0.034	0.902 ± 0.024	0.928 ± 0.032
TYMS (UniProt P04818)	0.96 ± 0.069	0.948 ± 0.068	0.937 ± 0.045	0.882 ± 0.078	0.962 ± 0.053	0.937 ± 0.063
UniProt P09497-2	0.993 ± 0.063	1.07 ± 0.11	1.1 ± 0.09	1.19 ± 0.14	0.996 ± 0.016	1.02 ± 0.079
UniProt P10619 and related entries	0.93 ± 0.036	0.9369 ± 0.0079	0.897 ± 0.035	0.863 ± 0.051	0.887 ± 0.018	0.886 ± 0.067
HSPD1 (UniProt P10809)	0.944 ± 0.22	1.06 ± 0.1	0.926 ± 0.14	1.11 ± 0.076	0.9953 ± 0.0068	0.92 ± 0.093
UniProt O96017 and related entries	1.03 ± 0.12	1.03 ± 0.095	1.01 ± 0.083	0.988 ± 0.13	0.997 ± 0.099	0.998 ± 0.074
ALDOC (UniProt P09972)	1.01 ± 0.034	1.01 ± 0.037	0.988 ± 0.047	1 ± 0.049	0.968 ± 0.054	0.957 ± 0.05
H2AFX (UniProt P16104)	0.857 ± 0.22	0.809 ± 0.15	0.778 ± 0.15	0.892 ± 0.15	0.592 ± 0.07	0.973 ± 0.31
SLC2A3 (UniProt P11169)	0.994 ± 0.026	0.9597 ± 0.0024	0.972 ± 0.04	0.995 ± 0.029	1 ± 0.051	0.977 ± 0.02
UniProt P09543-2	1.12 ± 0.036	1.13 ± 0.039	1.1 ± 0.023	1.09 ± 0.076	1.13 ± 0.044	1.11 ± 0.047
ACTL6A (UniProt O96019)	1.07 ± 0.044	1.05 ± 0.041	1.04 ± 0.047	1.06 ± 0.047	1.07 ± 0.034	1.07 ± 0.042
COX6C (UniProt P09669)	0.932 ± 0.087	0.822 ± 0.09	0.831 ± 0.12	0.808 ± 0.11	0.899 ± 0.015	0.748 ± 0.17
UniProt P14735 and related entries	1.04 ± 0.12	1.01 ± 0.1	0.993 ± 0.078	0.93 ± 0.13	1.01 ± 0.05	0.985 ± 0.064
NUDT3 (UniProt O95989)	0.962 ± 0.08	1.04 ± 0.14	0.938 ± 0.077	0.978 ± 0.099	0.938 ± 0.068	0.947 ± 0.067
RNH1 (UniProt P13489)	1.01 ± 0.093	0.965 ± 0.07	0.957 ± 0.071	0.946 ± 0.11	0.982 ± 0.075	0.938 ± 0.071

Record cards, as listed above. Order of values: NP40-soluble protein abundance (concentration: 1mM)	NP40-soluble protein abundance (concentration: 2mM)	NP40-soluble protein abundance (concentration: 4mM)	NP40-soluble protein abundance (concentration: 6mM)	NP40-soluble protein abundance (concentration: 8mM)	NP40-soluble protein abundance (concentration: 10mM)
UniProt P05771-2|P05771 as listed: 0.963 ± 0.038	0.966 ± 0.025	0.93 ± 0.029	0.982 ± 0.072	0.929 ± 0.049	0.957 ± 0.027
ALDOC (UniProt P09972) as listed: 1.01 ± 0.034	1.01 ± 0.037	0.988 ± 0.047	1 ± 0.049	0.968 ± 0.054	0.957 ± 0.05
